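Firefly luciferase light from HEK293 cells carrying a huntingtin (HTT) promoter reporter, read after 24 hours of compound exposure, giving single-concentration activity change.
Percent change in reporter signal versus vehicle (0%) down to no light (-100%); more negative values mean stronger inhibition of promoter activity.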

Values are in %.
Common to all entries: at 57.5 µM (top of the series).
Only part of the assay is listed here, not a random draw.

SMILES,activity change (%)
O=C(CSc1nc(-c2cccs2)nc2cc(=O)[nH]n12)Nc1ccccc1,-11.29
Nc1nonc1-c1nc2ccccc2n1CC(=O)Nc1ccccc1C(=O)O,-35.3
O=C1C(=O)N(C2CCN(C(=O)c3ccccc3F)CC2)CCN1Cc1ccc(F)cc1,-15.53
CCOc1ccc(NC(=O)c2sc3ccccc3c2Cl)cc1,48.55
CCOC(=O)c1cc(C)n(CC2CCC(C(=O)Nc3ccc(C)c(F)c3)CC2)c1C (stereo not drawn),-93.84
COc1cccc(CNC(=O)CCc2c(C)nn(-c3ccc(N4CCCC4)nn3)c2C)c1,-20.97
CCOc1ccccc1CNC(=O)Cn1c(-c2ccccc2)cc(C(C)=O)c1C,4.489
CSc1ccc(CNC(=O)CCc2c(C)nn(-c3ccc(N4CCCC4)nn3)c2C)cc1,-27.79
CCCOc1ccc(C2C(=O)N(C3CCC(C)CC3)CC(=O)N2Cc2cccc(OC)c2)cc1OC (stereo not drawn),-14.55
CCOc1ccc(NC(=O)/C=C\C(=O)N(c2ccc(C(C)C)cc2)C(C(=O)NCc2ccco2)c2ccc(F)cc2)cc1 (stereo not drawn),-62.82
CC(=O)Nc1ccc(S(=O)(=O)N2CCC(N3CCN(Cc4ccc(C)cc4)C(=O)C3=O)CC2)cc1,-10.44
CCOc1ccc(C(=O)Nc2cccc(-c3nc4cc(Cl)cc(Cl)c4o3)c2)cc1,-0.2956
O=C(Nc1ccc2c(c1)OCO2)c1cc(-c2cccc(Cl)c2)on1,-1.29
COC(=O)c1ccc(NC(=O)CC2C(=O)N(c3ccc(F)cc3)C(=O)N2Cc2ccc(OC)cc2)cc1 (stereo not drawn),-26.56
COC(=O)c1cc2oc3ccccc3c2n1CC(=O)Nc1ccc(C)cc1Cl,9.726
Cc1cccc(N2C(=O)C(CC(=O)Nc3ccc(F)cc3)N(C3CCCC3)C2=O)c1 (stereo not drawn),-30.92
COc1ccc(-c2cc(C(=O)Nc3c(C)nn(Cc4ccccc4C)c3C)no2)cc1,-27.8
COc1ccc(C2C(=O)N(C3CCCCCC3)CC(=O)N2CCC2=CCCCC2)cc1 (stereo not drawn),-43.28
Cc1cc(=O)n2c(C(=O)Nc3ccc(C)c(Cl)c3)c(C(=O)Nc3ccccc3)sc2n1,-21.71
CC(NC(=O)C1CCN(S(=O)(=O)Cc2ccccc2)CC1)c1ccccc1 (stereo not drawn),-12.41
COc1ccc(N2CCN(C(=O)CCc3c(C)nn(-c4ccc(N5CCCC5)nn4)c3C)CC2)cc1,-40.56
Cc1c(CC(=O)N2CCCCC2)c(=O)oc2c(C)c(O)ccc12,-16.07
COc1ccc2c(c1)cc1c(=O)n(CC(=O)NC3CCCCC3)nc(C)n12,-13.73
CCOC(=O)c1ccc(NC(=O)CC2C(=O)N(c3ccc(C)cc3)C(=O)N2C2CCCC2)cc1 (stereo not drawn),-45.18
COc1ccc(C2C(=O)N(C3CCC(C)CC3)CC(=O)N2CCc2ccccc2)cc1OC (stereo not drawn),-19.93
Cc1nc2ccn(Cc3ccco3)c(=O)c2cc1C(=O)N1CCN(c2ccccc2)CC1,-3.17
COc1cccc(-c2cc(C(=O)Nc3ccn(Cc4ccc(C)cc4)n3)no2)c1,-12.3
O=C(CSc1nc(-c2cccs2)nc2cc(=O)[nH]n12)Nc1ccccc1Cl,-13.48
COC(=O)c1c(NC(=O)CCCOc2cccc(C)c2)sc2c1CCC(C)C2 (stereo not drawn),-16.78
COc1cc(C)ccc1OCCCn1c(-c2ccc(Cl)cc2)nc2ccccc2c1=O,-8.199
CCc1cc(=O)oc2c(C)c3c(cc12)CN(CCc1ccccc1)CO3,-20.63
CCOCCCNC(=O)c1cnc2sc(N3CCCCC3)nn2c1=O,-2.068
Cc1nc2ccn(Cc3cccs3)c(=O)c2cc1C(=O)Nc1ccccc1,-29.76
CCN(C(=O)c1ccc(C(=O)N(CC)c2ccccc2C)cc1)c1ccccc1C,-44
COc1ccc2c(C)c(CCC(=O)NCc3ccccc3Cl)c(=O)oc2c1C,-16.71
O=C(Nc1cccnc1)c1cc(-c2cccc(Cl)c2)on1,-12.92
CCCOc1ccc(-c2nc(N3CCC(C)CC3)c3ccccc3n2)cc1,-14.12
CCC(C)NC(=O)c1cc(-c2cccc(OC)c2)on1 (stereo not drawn),61.28
COc1ccc(C)cc1NC(=O)C1CCN(S(=O)(=O)Cc2ccccc2)CC1,-6.088
COc1ccc(OC)c(NC(=O)c2ccc(-c3nc(COc4ccccc4)c(C)o3)cc2)c1,-25.73
CCc1nn(CC(=O)NCCc2ccc(OC)cc2OC)c(=O)c2cc3c(OC)cccc3n12,-24.87
CCc1nn(CC(=O)NCCOC)c(=O)c2cc3cc(F)ccc3n12,-11.2
CCOc1ccc(CNC(=O)c2cc3ccccn3n2)cc1OC,-21.19
COC(=O)CN1C(=O)CSc2ccc(S(=O)(=O)Nc3ccc(Cl)cc3C)cc21,-19.77
CCCc1cc(=O)[nH]c(Nc2ccc(O)cc2C)n1,-5.082
Cc1oc2ccc(O)c(CN3CCN(C)CC3)c2c1C(=O)Nc1ccccc1,-6.964
Cc1cc(O)c2c(C)c(CC(=O)N3CCCCC3)c(=O)oc2c1,-6.77
Cn1cnc2c(=O)oc3ccc(S(=O)(=O)N4CCN(c5ccccc5F)CC4)cc3c21,-29.03
O=C(NCCc1ccccc1)c1cnc2sc(N3CCCCC3)nn2c1=O,-11.28
COc1ccc(OC)c(NC(=O)CCc2c(C)nn(-c3ccc(N4CCCC4)nn3)c2C)c1,-5.01
CC1Cc2cc(S(=O)(=O)NCc3ccc(N(C)C)cc3)ccc2N1C(=O)C1CCC1 (stereo not drawn),-62.48
COc1cc(C2C(=O)N(C3CCCCC3)CC(=O)N2CCc2ccccc2)ccc1OC(C)C (stereo not drawn),-12.37
COc1cc(CSc2ncc(CO)n2Cc2ccc(C)cc2)cc(OC)c1,-8.756

Once more, the final 3:

| SMILES | activity change (%) |
|---|---|
| `CC1Cc2cc(S(=O)(=O)NCc3ccc(N(C)C)cc3)ccc2N1C(=O)C1CCC1` (stereo not drawn) | -62.48 |
| `COc1cc(C2C(=O)N(C3CCCCC3)CC(=O)N2CCc2ccccc2)ccc1OC(C)C` (stereo not drawn) | -12.37 |
| `COc1cc(CSc2ncc(CO)n2Cc2ccc(C)cc2)cc(OC)c1` | -8.756 |

From PubChem BioAssay record AID1508623 (NCATS, 2021).